In PMC5338345:
Results are given in words; binding and its absence hold for the method and conditions named. Binding seen in cells or lysates may run through a third protein. Some entries that bind do so weakly or less than the wild type. For part of these data: Sequences can lack the tags named with a protein.

Amino acid sequences for entries named in this document (tags omitted). A change or cut given only in a name is not applied to a line headed by its entry. Chains listed by the source or under a name are the forms on record and can include a tag or linker.
UniProt Q8BGV8: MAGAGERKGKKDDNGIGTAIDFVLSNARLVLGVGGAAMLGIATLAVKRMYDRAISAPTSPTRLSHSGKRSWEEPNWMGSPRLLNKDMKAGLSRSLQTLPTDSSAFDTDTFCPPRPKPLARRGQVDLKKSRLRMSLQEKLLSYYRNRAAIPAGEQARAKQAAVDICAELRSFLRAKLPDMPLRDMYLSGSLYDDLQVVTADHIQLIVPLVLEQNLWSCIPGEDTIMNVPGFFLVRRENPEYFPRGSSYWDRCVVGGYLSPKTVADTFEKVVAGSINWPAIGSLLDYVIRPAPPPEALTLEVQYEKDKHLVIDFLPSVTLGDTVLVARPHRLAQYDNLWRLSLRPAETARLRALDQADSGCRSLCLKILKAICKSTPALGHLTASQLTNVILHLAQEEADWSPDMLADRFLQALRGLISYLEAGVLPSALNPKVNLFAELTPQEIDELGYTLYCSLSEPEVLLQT
HA-Drp1 (human isoform 3) (O00429-4, form named): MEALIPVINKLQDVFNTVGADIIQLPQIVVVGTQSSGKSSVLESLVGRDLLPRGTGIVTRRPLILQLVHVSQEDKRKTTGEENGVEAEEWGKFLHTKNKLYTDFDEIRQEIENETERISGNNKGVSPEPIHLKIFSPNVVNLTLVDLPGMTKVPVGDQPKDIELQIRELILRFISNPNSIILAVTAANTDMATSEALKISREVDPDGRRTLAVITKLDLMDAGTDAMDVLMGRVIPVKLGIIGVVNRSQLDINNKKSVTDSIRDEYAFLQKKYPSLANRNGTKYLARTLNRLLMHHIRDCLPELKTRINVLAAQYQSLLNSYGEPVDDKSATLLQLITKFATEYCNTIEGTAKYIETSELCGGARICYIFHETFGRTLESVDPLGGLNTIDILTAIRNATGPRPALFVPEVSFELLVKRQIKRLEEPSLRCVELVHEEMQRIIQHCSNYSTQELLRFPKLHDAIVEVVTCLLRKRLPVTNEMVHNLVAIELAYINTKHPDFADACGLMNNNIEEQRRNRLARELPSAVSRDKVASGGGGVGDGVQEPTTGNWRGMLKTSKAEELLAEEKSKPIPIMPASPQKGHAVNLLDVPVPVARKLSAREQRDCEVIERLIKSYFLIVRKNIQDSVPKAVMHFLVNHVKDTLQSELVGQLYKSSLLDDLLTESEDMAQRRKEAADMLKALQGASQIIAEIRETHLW

What was measured:
Assay in all cases: pull-down; GST-tagged protein expressed in HEK293 cells isolated from the lysate on glutathione-Sepharose 4B; blotted for HA (transfected Drp1) or for endogenous Drp1; also with overexpression of SENP3, SENP2 or SENP5
GST-MID49 (mouse) = target: T1, GST-MID49 (mouse) (UniProt Q5NCS9)
T1 sequence: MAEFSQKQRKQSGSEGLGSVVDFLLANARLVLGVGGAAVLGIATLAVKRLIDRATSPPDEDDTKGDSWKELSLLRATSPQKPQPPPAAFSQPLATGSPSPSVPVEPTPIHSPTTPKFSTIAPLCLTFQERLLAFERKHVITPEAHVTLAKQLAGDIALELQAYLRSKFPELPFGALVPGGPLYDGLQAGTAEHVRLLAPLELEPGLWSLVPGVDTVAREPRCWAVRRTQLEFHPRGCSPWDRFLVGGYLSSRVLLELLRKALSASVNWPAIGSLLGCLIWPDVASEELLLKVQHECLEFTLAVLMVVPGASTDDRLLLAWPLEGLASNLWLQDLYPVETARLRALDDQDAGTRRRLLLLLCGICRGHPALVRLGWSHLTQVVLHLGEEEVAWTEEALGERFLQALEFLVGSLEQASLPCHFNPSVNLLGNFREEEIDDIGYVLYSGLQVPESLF

GST-MID51 (mouse) = GST-MID51 (mouse) (UniProt Q8BGV8)
GST-Fis1 (mouse) = target: T2, GST-Fis1 (mouse) (UniProt Q9CQ92)
T2 sequence: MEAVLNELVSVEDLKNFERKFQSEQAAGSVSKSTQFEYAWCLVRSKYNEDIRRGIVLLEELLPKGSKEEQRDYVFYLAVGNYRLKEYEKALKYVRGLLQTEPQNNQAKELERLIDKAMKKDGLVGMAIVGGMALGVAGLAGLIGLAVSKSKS

Measured: binding

HA-Drp1 (human isoform 3) (from UniProt O00429-4 1-699)
binds: all assays above
